The text below walks through data of article PMC3906129.

The target of assay [1] is T1, myc-Dvl2 (Xenopus Dishevelled 2) (Xenopus) (UniProt P51142).
T1 sequence: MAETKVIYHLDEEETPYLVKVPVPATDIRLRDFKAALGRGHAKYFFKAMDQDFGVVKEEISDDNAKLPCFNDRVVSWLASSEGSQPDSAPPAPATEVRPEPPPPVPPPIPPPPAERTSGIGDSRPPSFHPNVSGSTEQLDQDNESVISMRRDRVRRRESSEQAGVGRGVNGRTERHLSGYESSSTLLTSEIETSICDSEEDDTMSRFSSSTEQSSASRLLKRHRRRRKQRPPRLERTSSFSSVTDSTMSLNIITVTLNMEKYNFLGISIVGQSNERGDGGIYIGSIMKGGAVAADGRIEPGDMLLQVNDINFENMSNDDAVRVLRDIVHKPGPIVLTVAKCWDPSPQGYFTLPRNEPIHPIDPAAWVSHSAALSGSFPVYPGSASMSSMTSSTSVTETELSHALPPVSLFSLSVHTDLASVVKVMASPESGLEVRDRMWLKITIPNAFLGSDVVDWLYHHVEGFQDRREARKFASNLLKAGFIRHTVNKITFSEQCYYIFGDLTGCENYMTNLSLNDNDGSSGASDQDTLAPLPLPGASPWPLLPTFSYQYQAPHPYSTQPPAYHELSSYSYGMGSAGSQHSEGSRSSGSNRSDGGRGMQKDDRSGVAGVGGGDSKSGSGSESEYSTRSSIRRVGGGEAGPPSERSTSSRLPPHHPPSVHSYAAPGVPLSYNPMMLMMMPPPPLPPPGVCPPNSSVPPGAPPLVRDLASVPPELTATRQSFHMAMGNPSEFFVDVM
The assay is described as follows: co-IP; Figure 5C, D: Flag-Arrb2, myc-Dvl2, HA-Gβ1 and HA-Gγ2 overexpressed in HEK 293T, with or without the Gβ-sequestering β-ARKct; Flag-Arrb2 (C) or myc-Dvl2 (D) precipitated; NP-40 buffer; 4 h at 4°C with antibody and protein G-magnetic beads; Western blot.

Assay [2] addresses Flag-β-Arrestin2 (Xenopus). The assay is described as follows: co-IP; Figure 5A: Flag-Arrb2 co-expressed with HA-Gβ1 and HA-Gγ2, with or without Dvl1, Dvl2 or Dvl3, in HEK 293T; NP-40 buffer (20 mM Tris-HCl pH 7.4, 150 mM NaCl, 2 mM EDTA, 1% NP-40); 4 h at 4°C with antibody and protein G-magnetic beads; Western blot. (In general: In western blotting, separated proteins are transferred to a membrane and probed.)

The target of assay [3] is Flag-β-Arrestin2 (Xenopus). Nature of the assay: co-IP; Figure 5C, D: Flag-Arrb2, myc-Dvl2, HA-Gβ1 and HA-Gγ2 overexpressed in HEK 293T, with or without the Gβ-sequestering β-ARKct; Flag-Arrb2 (C) or myc-Dvl2 (D) precipitated; NP-40 buffer; 4 h at 4°C with antibody and protein G-magnetic beads; Western blot.

No constants are given. Whether binding was seen depends on the method and setting. Binding seen in cells or lysates may run through a third protein. A result given as binding can be weak or reduced; the word gives no strength. Sequences can lack the tags named with a protein.

Turning to Flag-β-Arrestin2 (Xenopus), the binding result in assay [1] is reported as “binds”.

B1: myc-Dvl3 (Xenopus Dishevelled 3) (protein, UniProt Q6DKE2 1-717)
chain: MGETKVIYHLDEQETPYLVKLPVPAEKVTLGDFKNILNKPNYKFFFKSMDDDFGVVKEEISDDNAKLPCFNGRVVCWLVSADGSQSDAGSVCADIQSDLPPPIERTGGIGDSRPPSFHPNTRGSQENLDNETETDSVVSARRERPGRKETSEHATRINGTSKMERRRDTGGYESSSTLMSSELDSTSFFDSDEDDSTSRFSNSTEQSSASRLMRRHKRRRRKPKAPQIERSSSFSSITDSTMSLNIITVTLNMEKYNFLGISIVGQSNERGDGGIYIGSIMKGGAVAADGRIEPGDMLLQVNDTNFENMSNDDAVRVLRDIVHKPGPITLTVAKCWDPSPRNCFTLPRSEPIRPIDPAAWVSHTAAMTGTYPAYGMSPSMSTITSTSSSITSSIPETERFDDFQLSIHSDMVTIVKAMSSSESGLEVRDRMWLKITIPNAFIGSDVVDWLYHHVEGFTDRREARKYASNLLKAGYIRHTVNKITFSEQCYYIFGDLCGNMANLSLNDHDGSSGTSDQDTLAPLPHPGAAPWPIAFQYQYPLPHPYSPHPGFPDPAYIYGGGSAGSQHSEGSRSSGSNRSSTEKRKDRETKGGDSKSGGSGSESDHTTRSSLRRDRAASERSVPASEHSHRSHHSIAHSIRSHHTHQSFGPPGIPPLYGAPMMMMPAPVSVMGPPGAPPSRDLASVPPELTASRQSFRMAMGNPSEFFVDVIKEFWGV
For the molecule B1, in assay [2], the binding result is listed as “binds”.

B2: myc-Dvl2 (Xenopus Dishevelled 2) (protein, UniProt P51142 1-736)
chain: T1 sequence
B2: the binding result in assay [2] and in assay [3] was “binds” each time.
